These are yes or no findings as the source states them, for the method shown. In cells and extracts the contact can be indirect. These calls come from enrichment with a bait or labelling near it, and not all partners need be listed. Sequences can lack the tags named with a protein.

By UniProt entry, the sequences of proteins in these tests, tags left out. Residues count along the entry.
UniProt G3I8R9, residues 19-654: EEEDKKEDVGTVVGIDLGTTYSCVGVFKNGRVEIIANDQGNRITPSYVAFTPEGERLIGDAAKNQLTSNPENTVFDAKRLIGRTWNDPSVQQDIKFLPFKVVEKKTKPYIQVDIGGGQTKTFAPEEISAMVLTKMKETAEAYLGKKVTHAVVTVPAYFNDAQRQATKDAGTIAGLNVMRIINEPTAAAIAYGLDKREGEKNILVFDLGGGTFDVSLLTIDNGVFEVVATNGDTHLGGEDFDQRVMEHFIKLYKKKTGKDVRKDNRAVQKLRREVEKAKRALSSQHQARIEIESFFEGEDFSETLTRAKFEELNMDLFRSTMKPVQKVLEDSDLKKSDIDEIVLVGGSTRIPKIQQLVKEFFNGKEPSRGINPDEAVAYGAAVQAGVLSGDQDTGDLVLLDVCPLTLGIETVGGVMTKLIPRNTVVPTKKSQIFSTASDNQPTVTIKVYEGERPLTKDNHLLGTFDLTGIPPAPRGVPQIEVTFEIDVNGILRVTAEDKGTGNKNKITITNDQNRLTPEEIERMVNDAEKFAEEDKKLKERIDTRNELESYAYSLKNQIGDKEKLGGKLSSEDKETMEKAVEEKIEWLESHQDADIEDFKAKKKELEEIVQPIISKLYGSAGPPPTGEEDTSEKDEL

For the assay, the target named is T1, FLAG-M1-MANF (UniProt Q9CXI5).
T1 sequence: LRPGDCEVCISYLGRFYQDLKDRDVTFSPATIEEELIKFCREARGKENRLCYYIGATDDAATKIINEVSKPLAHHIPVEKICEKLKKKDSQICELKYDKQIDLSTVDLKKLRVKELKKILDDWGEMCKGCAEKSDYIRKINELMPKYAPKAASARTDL
The assay can be described thus: affinity purification with mass spectrometry; in vivo cross-linking with 1 mM DSP, lysis in TBS/Ca2+ buffer, ANTI-FLAG-M1 agarose IP of FLAG-M1-MANF from CHO-K1 S21 MANF-/- cells; Coomassie bands excised and analysed by mass spectrometry.

In the case of “endogenous BiP (CHO-K1 S21 cells) (from UniProt G3I8R9 19-654)”, the binding result is recorded as “binds”.

Regarding Grp94, the binding entry is reported as “binds”.
